Some results were stated once for a whole list of compounds, not compound by compound.
Assays:
soybean rust = experiment: In vivo pot determination, control effect on soybean rust; conditions: 400 ppm, foliar spray
Experimental: (§1) An in vivo pot determination method was adopted, i.e., a sample of the compound to be tested was dissolved with a small amount of solvent (the type of the solvent may be, for example, acetone, methanol and DMF, and selected according to the capability to dissolve the sample; the volume ratio of the amount of the solvent to the amount of sprayed solution is equal to or less than 0.05), diluted with water containing 0.1% Tween 80 and formulated into a required concentration of solution to be tested. Foliar spray treatment was carried out with the compounds of the present invention at the designed concentrations. A blank control with clear water spray was set and repeated for three times. Disease inoculation was carried out on the second day after the treatment. After inoculation, the plants were placed in a phytotron for moisturizing cultivation (temperature: 25° C. on day, 20° C. at night, relative humidity 95-99%). […] After the control was fully diseased (generally one week), the control effects of the compounds were evaluated. For the result survey, A Manual of Assessment Keys for Plant Diseases compiled by American Phytopathological Society can be referred to, which uses 100-0 for representation. “100” level represents no disease and “0” level represents the most severe disease degree.

cucumber downy mildew = experiment: In vivo pot determination, control effect on cucumber downy mildew; conditions: 400 ppm, foliar spray
Experimental: as §1

Row | SMILES | control effects on soybean rust (soybean rust) | control effects on cucumber downy mildew (cucumber downy mildew)
1 | N#CC(C#N)=NOCc1csc(NC(=O)c2ccc(C(F)(F)F)cc2)n1 [Compound 22] | ≥ 80% | ≥ 80%
2 | COc1ccc(C(=O)Nc2nc(CON=C(C#N)C#N)cs2)cc1 [Compound 19] | ≥ 80% | ≥ 80%
3 | N#CC(C#N)=NOCc1csc(NC(=O)c2ccc(F)cc2F)n1 [Compound 86] | ≥ 80% | ≥ 80%
4 | CC(C)(C)OC(=O)Nc1nc(CON=C(C#N)C#N)cs1 [Compound 123] |  | ≥ 80%
5 | N#CC(=NOCc1csc(N)n1)C(N)=O [Compound 179] | ≥ 80% | ≥ 80%
6 | CCc1ccc(C(=O)Nc2nc(CON=C(C#N)C#N)cs2)cc1 [Compound 365] | ≥ 80% | ≥ 80%
7 | CCOc1ccccc1C(=O)Nc1nc(CON=C(C#N)C#N)cs1 [Compound 364] | ≥ 80% | 
8 | Cc1ccc(C(=O)Nc2nc(CON=C(C#N)C#N)cs2)cc1 [Compound 16] | ≥ 80% | ≥ 80%
9 | N#CC(C#N)=NOCc1csc(NC(=O)c2ccc([N+](=O)[O-])cc2)n1 [Compound 57] | ≥ 80% | ≥ 80%
10 | N#CC(C#N)=NOCc1csc(NC(=O)c2ccc([N+](=O)[O-])c(F)c2)n1 [Compound 45] |  | ≥ 80%
11 | N#CC(=NOCc1csc(NC(=O)c2ccccc2Cl)n1)C(N)=O [Compound 134] |  | ≥ 80%
12 | CC=CC(=O)Nc1nc(CON=C(C#N)C#N)cs1 [Compound 117] | ≥ 80% | ≥ 80%
13 | N#CC(C#N)=NOCc1csc(NC(=O)c2ccc(Br)cc2)n1 [Compound 10] | ≥ 80% | ≥ 80%
14 | N#CC(C#N)=NOCc1csc(NC(=O)c2ccc(Cl)c(Cl)c2)n1 [Compound 36] | ≥ 80% | ≥ 80%
15 | N#CC(C#N)=NOCc1csc(NC(=O)c2ccccc2OC(F)(F)F)n1 [Compound 23] | ≥ 80% | ≥ 80%
16 | N#CC(C#N)=NOCc1csc(NC(=O)c2ccc(F)c(F)c2)n1 [Compound 87] | ≥ 80% | ≥ 80%
17 | N#CC(C#N)=NOCc1csc(NC(=O)c2ccccc2)n1 [Compound 95] | ≥ 80% | ≥ 80%
18 | N#CC(C#N)=NOCc1csc(NC(=O)c2cccnc2)n1 [Compound 65] | ≥ 80% | ≥ 80%

Source: patent US12262712B2, “Oxime ether compound and application thereof” (SHENYANG SINOCHEM AGROCHEMICALS R&D CO., LTD., priority 2019, dated 2025)
